Experimental data reported in patent US20060257938A1, “Method of screening for drugs that block ligand binding to a lipid binding protein” (priority 2005, published 2006).

B1: 60A, 72A (protein, listed as Rattus norvegicus)
chain: AFDGTWKVDRNENYEKFMEKMGINVVKRKLGAHDNLKLTITQEGNKFTVKESSNFRNIDAVFELGVDFAYSAADGTELTGTWTMEGNKLVGKFKRVDNGKELIAVREISGNELIQTYTYEGVEAKRIFKKE
modifications: PEPTIDE (1)...(131) wild-type rat intestinal fatty acid binding protein
B2: 62A, 72A (protein, listed as Rattus norvegicus)
chain: AFDGTWKVDRNENYEKFMEKMGINVVKRKLGAHDNLKLTITQEGNKFTVKESSNFRNIDVVAELGVDFAYSAADGTELTGTWTMEGNKLVGKFKRVDNGKELIAVREISGNELIQTYTYEGVEAKRIFKKE
modifications: PEPTIDE (1)...(131) wild-type rat intestinal fatty acid binding protein
B3: 60H, 72A (protein, listed as Rattus norvegicus)
chain: AFDGTWKVDRNENYEKFMEKMGINVVKRKLGAHDNLKLTITQEGNKFTVKESSNFRNIDHVFELGVDFAYSAADGTELTGTWTMEGNKLVGKFKRVDNGKELIAVREISGNELIQTYTYEGVEAKRIFKKE
modifications: PEPTIDE (1)...(131) wild-type rat intestinal fatty acid binding protein
B4: 62C, 72A (protein, listed as Rattus norvegicus)
chain: AFDGTWKVDRNENYEKFMEKMGINVVKRKLGAHDNLKLTITQEGNKFTVKESSNFRNIDVVCELGVDFAYSAADGTELTGTWTMEGNKLVGKFKRVDNGKELIAVREISGNELIQTYTYEGVEAKRIFKKE
modifications: PEPTIDE (1)...(131) wild-type rat intestinal fatty acid binding protein
B5: 62G, 72A (protein, listed as Rattus norvegicus)
chain: AFDGTWKVDRNENYEKFMEKMGINVVKRKLGAHDNLKLTITQEGNKFTVKESSNFRNIDVVGELGVDFAYSAADGTELTGTWTMEGNKLVGKFKRVDNGKELIAVREISGNELIQTYTYEGVEAKRIFKKE
modifications: PEPTIDE (1)...(131) wild-type rat intestinal fatty acid binding protein
B6: 62I, 72A (protein, listed as Rattus norvegicus)
chain: AFDGTWKVDRNENYEKFMEKMGINVVKRKLGAHDNLKLTITQEGNKFTVKESSNFRNIDVVIELGVDFAYSAADGTELTGTWTMEGNKLVGKFKRVDNGKELIAVREISGNELIQTYTYEGVEAKRIFKKE
modifications: PEPTIDE (1)...(131) wild-type rat intestinal fatty acid binding protein
B7: 62H, 72A (protein, listed as Rattus norvegicus)
chain: AFDGTWKVDRNENYEKFMEKMGINVVKRKLGAHDNLKLTITQEGNKFTVKESSNFRNIDVVHELGVDFAYSAADGTELTGTWTMEGNKLVGKFKRVDNGKELIAVREISGNELIQTYTYEGVEAKRIFKKE
modifications: PEPTIDE (1)...(131) wild-type rat intestinal fatty acid binding protein
B8: 60F, 72A (protein, listed as Rattus norvegicus)
chain: AFDGTWKVDRNENYEKFMEKMGINVVKRKLGAHDNLKLTITQEGNKFTVKESSNFRNIDFVFELGVDFAYSAADGTELTGTWTMEGNKLVGKFKRVDNGKELIAVREISGNELIQTYTYEGVEAKRIFKKE
modifications: PEPTIDE (1)...(131) wild-type rat intestinal fatty acid binding protein
B9: 60L, 72A (protein, listed as Rattus norvegicus)
chain: AFDGTWKVDRNENYEKFMEKMGINVVKRKLGAHDNLKLTITQEGNKFTVKESSNFRNIDLVFELGVDFAYSAADGTELTGTWTMEGNKLVGKFKRVDNGKELIAVREISGNELIQTYTYEGVEAKRIFKKE
modifications: PEPTIDE (1)...(131) wild-type rat intestinal fatty acid binding protein
B10: 60P, 72A (protein, listed as Rattus norvegicus)
chain: AFDGTWKVDRNENYEKFMEKMGINVVKRKLGAHDNLKLTITQEGNKFTVKESSNFRNIDPVFELGVDFAYSAADGTELTGTWTMEGNKLVGKFKRVDNGKELIAVREISGNELIQTYTYEGVEAKRIFKKE
modifications: PEPTIDE (1)...(131) wild-type rat intestinal fatty acid binding protein
B11: 60K, 72A (protein, listed as Rattus norvegicus)
chain: AFDGTWKVDRNENYEKFMEKMGINVVKRKLGAHDNLKLTITQEGNKFTVKESSNFRNIDKVFELGVDFAYSAADGTELTGTWTMEGNKLVGKFKRVDNGKELIAVREISGNELIQTYTYEGVEAKRIFKKE
modifications: PEPTIDE (1)...(131) wild-type rat intestinal fatty acid binding protein
B12: 60T, 72A (protein, listed as Rattus norvegicus)
chain: AFDGTWKVDRNENYEKFMEKMGINVVKRKLGAHDNLKLTITQEGNKFTVKESSNFRNIDTVFELGVDFAYSAADGTELTGTWTMEGNKLVGKFKRVDNGKELIAVREISGNELIQTYTYEGVEAKRIFKKE
modifications: PEPTIDE (1)...(131) wild-type rat intestinal fatty acid binding protein
B13: 60I, 72A (protein, listed as Rattus norvegicus)
chain: AFDGTWKVDRNENYEKFMEKMGINVVKRKLGAHDNLKLTITQEGNKFTVKESSNFRNIDIVFELGVDFAYSAADGTELTGTWTMEGNKLVGKFKRVDNGKELIAVREISGNELIQTYTYEGVEAKRIFKKE
modifications: PEPTIDE (1)...(131) wild-type rat intestinal fatty acid binding protein
B14: 60C, 72A (protein, listed as Rattus norvegicus)
chain: AFDGTWKVDRNENYEKFMEKMGINVVKRKLGAHDNLKLTITQEGNKFTVKESSNFRNIDCVFELGVDFAYSAADGTELTGTWTMEGNKLVGKFKRVDNGKELIAVREISGNELIQTYTYEGVEAKRIFKKE
modifications: PEPTIDE (1)...(131) wild-type rat intestinal fatty acid binding protein
B15: 60M, 72A (protein, listed as Rattus norvegicus)
chain: AFDGTWKVDRNENYEKFMEKMGINVVKRKLGAHDNLKLTITQEGNKFTVKESSNFRNIDMVFELGVDFAYSAADGTELTGTWTMEGNKLVGKFKRVDNGKELIAVREISGNELIQTYTYEGVEAKRIFKKE
modifications: PEPTIDE (1)...(131) wild-type rat intestinal fatty acid binding protein
B16: 62E, 72A (protein, listed as Rattus norvegicus)
chain: AFDGTWKVDRNENYEKFMEKMGINVVKRKLGAHDNLKLTITQEGNKFTVKESSNFRNIDVVEELGVDFAYSAADGTELTGTWTMEGNKLVGKFKRVDNGKELIAVREISGNELIQTYTYEGVEAKRIFKKE
modifications: PEPTIDE (1)...(131) wild-type rat intestinal fatty acid binding protein
B17: 62D, 72A (protein, listed as Rattus norvegicus)
chain: AFDGTWKVDRNENYEKFMEKMGINVVKRKLGAHDNLKLTITQEGNKFTVKESSNFRNIDVVDELGVDFAYSAADGTELTGTWTMEGNKLVGKFKRVDNGKELIAVREISGNELIQTYTYEGVEAKRIFKKE
modifications: PEPTIDE (1)...(131) wild-type rat intestinal fatty acid binding protein
B18: 60R, 72A (protein, listed as Rattus norvegicus)
chain: AFDGTWKVDRNENYEKFMEKMGINVVKRKLGAHDNLKLTITQEGNKFTVKESSNFRNIDRVFELGVDFAYSAADGTELTGTWTMEGNKLVGKFKRVDNGKELIAVREISGNELIQTYTYEGVEAKRIFKKE
modifications: PEPTIDE (1)...(131) wild-type rat intestinal fatty acid binding protein
B19: 60N, 72A (protein, listed as Rattus norvegicus)
chain: AFDGTWKVDRNENYEKFMEKMGINVVKRKLGAHDNLKLTITQEGNKFTVKESSNFRNIDNVFELGVDFAYSAADGTELTGTWTMEGNKLVGKFKRVDNGKELIAVREISGNELIQTYTYEGVEAKRIFKKE
modifications: PEPTIDE (1)...(131) wild-type rat intestinal fatty acid binding protein
B20: 60Q, 72A (protein, listed as Rattus norvegicus)
chain: AFDGTWKVDRNENYEKFMEKMGINVVKRKLGAHDNLKLTITQEGNKFTVKESSNFRNIDQVFELGVDFAYSAADGTELTGTWTMEGNKLVGKFKRVDNGKELIAVREISGNELIQTYTYEGVEAKRIFKKE
modifications: PEPTIDE (1)...(131) wild-type rat intestinal fatty acid binding protein
B21: 60S, 72A (protein, listed as Rattus norvegicus)
chain: AFDGTWKVDRNENYEKFMEKMGINVVKRKLGAHDNLKLTITQEGNKFTVKESSNFRNIDSVFELGVDFAYSAADGTELTGTWTMEGNKLVGKFKRVDNGKELIAVREISGNELIQTYTYEGVEAKRIFKKE
modifications: PEPTIDE (1)...(131) wild-type rat intestinal fatty acid binding protein
B22: 60G, 72A (protein, listed as Rattus norvegicus)
chain: AFDGTWKVDRNENYEKFMEKMGINVVKRKLGAHDNLKLTITQEGNKFTVKESSNFRNIDGVFELGVDFAYSAADGTELTGTWTMEGNKLVGKFKRVDNGKELIAVREISGNELIQTYTYEGVEAKRIFKKE
modifications: PEPTIDE (1)...(131) wild-type rat intestinal fatty acid binding protein
B23: 60W, 72A (protein, listed as Rattus norvegicus)
chain: AFDGTWKVDRNENYEKFMEKMGINVVKRKLGAHDNLKLTITQEGNKFTVKESSNFRNIDWVFELGVDFAYSAADGTELTGTWTMEGNKLVGKFKRVDNGKELIAVREISGNELIQTYTYEGVEAKRIFKKE
modifications: PEPTIDE (1)...(131) wild-type rat intestinal fatty acid binding protein

Assay: Baseline fluorescence ratio Ro of probe in absence of analyte
Conditions: for AvgOfRo: average baseline fluorescence ratio Ro of the clone probe, substitutions with respect to SEQ ID NO: 2; for Ro: baseline fluorescence ratio of probe, no fatty acid

Molecule | AvgOfRo | Ro
B1 | 0.23 | 0.227
B2 | 0.27 | –
B3 | 0.29 | –
B4 | 0.19 | –
B5 | 0.22 | –
B6 | 0.19 | –
B7 | 0.20 | –
B8 | 0.25 | 0.247
B9 | 0.24 | 0.236
B10 | 0.40 | –
B11 | 0.41 | 0.465
B12 | 0.22 | –
B13 | 0.20 | 0.202
B14 | 0.17 | –
B15 | 0.29 | –
B16 | 0.21 | –
B17 | 0.23 | 0.230
B18 | 0.27 | –
B19 | 0.21 | –
B20 | 0.27 | –
B21 | 0.26 | –
B22 | 0.23 | –
B23 | 0.18 | 0.185
